Strings that start with PEPTIDE1 are HELM notation: dots part the residues, brackets hold end groups and non-standard residues.
Assay: general procedure: Boc solid-phase peptide synthesis
Conditions: whole synthesis, no impurities detected at the 1% level

## PEPTIDE1{[IVA].H.P.F.H.[Sta].L.F.[am]}$$$$V2.0
HPLC
  final purity (method not given): greater than 99% pure
  final HPLC purity: Greater than 99% single peak

Source: patent publication US4478826A (Merck & Co., Inc., priority 1982, dated 1984)
